Among the data in article PMC7819943, “Rice protein-binding microarrays: a tool to detect cis-acting elements near promoter regions in rice” are binding signal values, retold here.

Sequences of proteins named here, by UniProt entry; tags and fusion partners are left off.
UniProt Q0JBA9, entry or part of it: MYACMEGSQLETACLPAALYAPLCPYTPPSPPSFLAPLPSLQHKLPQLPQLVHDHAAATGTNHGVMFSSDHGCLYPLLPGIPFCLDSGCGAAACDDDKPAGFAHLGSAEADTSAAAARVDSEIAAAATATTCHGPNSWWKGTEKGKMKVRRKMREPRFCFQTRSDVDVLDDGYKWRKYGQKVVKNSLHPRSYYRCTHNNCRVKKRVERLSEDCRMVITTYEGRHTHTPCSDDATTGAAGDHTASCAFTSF

This is one part of the list.

This assay addresses OsWRKY34 (Oryza sativa, UniProt Q0JBA9 1-250). Put plainly: protein-binding microarray (RPBM); PBS, 2% BSA, 51.3 ng/ul salmon testes DNA, 50 uM zinc acetate, 200 nM TF, 25 C, 1 h; high values mean tight binding. The settings on record: protein: recombinant; tags: N-terminal polyhistidine and DsRed monomer fusion (pET32a); label: CyDye5-dUTP incorporated in the synthesized complementary strand; 3' TTTTT single-stranded linker to array surface; dsDNA, one strand shown. In outline: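 Transcription factors, each fused N-terminally to a polyhistidine tag and DsRed, were expressed in E. coli BL21-CodonPlus and purified on Ni–NTA. A custom Agilent array was made double-stranded by primer extension with Cy5-dUTP and blocked with 2% BSA. It was incubated with 200 nM protein in PBS, 2% BSA, salmon testes DNA and 50 µM zinc acetate at 25 °C for 1 h, then washed. The binding signal is per-feature fluorescence intensity (arbitrary units) read on an Axon 4000B scanner.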
In the case of “CACGTCGCCGCCTGCCTGCTCCGCTCTCCGCCGCTCGCCCCGGAGTCACCTAGTGCAG”, the binding signal was 8040 fluorescence intensity (a.u.).
The result for “TCTGCTTTGTTCTAACTTTTCTGCTTTTCTTGCATGGAGTCGGAGTCACCTAGTGCAG” reads 8340 fluorescence intensity (a.u.); that for “AGGTTCTATGACAGTATTGCACCCGGTTTTGTCAGCTGACCGGAGTCACCTAGTGCAG”, 8600 fluorescence intensity (a.u.); that for “TCCTAATTGAAGGGGATGGGGCAGTCTCTGGTCGACCTCACGGAGTCACCTAGTGCAG”, 10500 fluorescence intensity (a.u.).
The result for “TAAAACAGTTTGACTTTGACTAAAGTCAAAACGTTTTATACGGAGTCACCTAGTGCAG” reads 10700 fluorescence intensity (a.u.); that for “GAGGTGGAAGAAAGTAGTAACAGGGGCATTTTTCTCCGTTCGGAGTCACCTAGTGCAG”, 9080 fluorescence intensity (a.u.); that for “GGGAGGAGGAGGAGGAGAAGGGCGGCGGGAGGAGGGGCGACGGAGTCACCTAGTGCAG”, 14000 fluorescence intensity (a.u.).
For the sequence “TCATGCTAACGTCTAACCTCATCGTTATCGTCGTGTCACGCGGAGTCACCTAGTGCAG”, the binding signal is 9300 fluorescence intensity (a.u.).
As for “CCACCAATTAAACACGTCTATCTTGCCATATATTCCTCACCGGAGTCACCTAGTGCAG”, the binding signal was 10900 fluorescence intensity (a.u.).
The result for “GTGGTCCTCCACTTTCCACACCTGCACCGCTGCTGCAGCACGGAGTCACCTAGTGCAG” reads 8630 fluorescence intensity (a.u.); that for “TTGATTTTGCTCGTGGTGTGTGTTTGTGTTTGGTATGGTTCGGAGTCACCTAGTGCAG”, 18400 fluorescence intensity (a.u.).
Consider “TTGGTCCAAATTTGTGCACCCTCTCATGCCACTACCGTCACGGAGTCACCTAGTGCAG”, for which the binding signal was 8520 fluorescence intensity (a.u.).
Turning to “CTTTTTCTCTCTCATCAATCTCTCTCTCTCCACATCCATCCGGAGTCACCTAGTGCAG”, the binding signal was 8160 fluorescence intensity (a.u.).
With “CCTATATCATCCTTTGATAAGATCGACTGTTTGCTATTTACGGAGTCACCTAGTGCAG” the figure was 9940 fluorescence intensity (a.u.).
Turning to “TTGTATTTTTTTTGTTCTCTCTTCATCCTACTCAATTATTCGGAGTCACCTAGTGCAG”, the binding signal was 12100 fluorescence intensity (a.u.).
With “TGTCTTATGTTATGTGAGAATACAATCCCTCACCGTGCTTCGGAGTCACCTAGTGCAG” the figure was 8220 fluorescence intensity (a.u.); with “TTTCAACGCAAAAGTTCACCCTTTTTTCTGCTTCCTTTTTCGGAGTCACCTAGTGCAG”, 8370 fluorescence intensity (a.u.); with “ATTCGCCCCAGACACCACATTTCTTGGTACATAGCTAGCTCGGAGTCACCTAGTGCAG”, 8780 fluorescence intensity (a.u.).
The result for “GGGCTATCATCCTTATTGAGTACTCTTGTTGGTTTCTTCTCGGAGTCACCTAGTGCAG” reads 11400 fluorescence intensity (a.u.); that for “CGGGCGGCTGAGATTCAATGTGGGGCGCGTGGGGTGGCGACGGAGTCACCTAGTGCAG”, 8650 fluorescence intensity (a.u.).
Regarding “CATTCATTGTTCTTGTTCTTGTTCTTGCTCTTGCTCTTCTCGGAGTCACCTAGTGCAG”, the binding signal was 11400 fluorescence intensity (a.u.).
As for “CCTACTTGGGAAGTTGGGTGGGATTGGCGTCGTGTTCGTGCGGAGTCACCTAGTGCAG”, the binding signal was 8050 fluorescence intensity (a.u.).
With “GGGATCGCGGAGTTGACCCGTATTGCATGCAGGCAGCTGCCGGAGTCACCTAGTGCAG” the figure was 8600 fluorescence intensity (a.u.); with “ACCGCTCTTTCTTTCCGCCTTATCGGCTCAAGTGGCCGTGCGGAGTCACCTAGTGCAG”, 11700 fluorescence intensity (a.u.).
Consider “TCGACAATGTCACTCCATCATATCATGGCCAAAATATAACCGGAGTCACCTAGTGCAG”, for which the binding signal was 8140 fluorescence intensity (a.u.).
The result for “TCATTCCGATTTGGTGGGGTTTGAGTTTGATTGATTCTTTCGGAGTCACCTAGTGCAG” reads 19300 fluorescence intensity (a.u.); that for “TTTGCACCGTCGACGCGTTCCCGCTGGTTTCCGTTTGTTGCGGAGTCACCTAGTGCAG”, 8190 fluorescence intensity (a.u.).
“GTGTCGTCTCACTCATTTATATCTGTAGTTGCTCGCGGTACGGAGTCACCTAGTGCAG”: the binding signal was 9550 fluorescence intensity (a.u.).
With “GAGAACCTTCGTCGTAGTAGCCGCGAGCGCACATCCTCATCGGAGTCACCTAGTGCAG” the figure was 9310 fluorescence intensity (a.u.).
Turning to “GAGGGTGTGATTTTCCGGTATCGTTTTTGAGAGAGTTGAGCGGAGTCACCTAGTGCAG”, the binding signal was 9580 fluorescence intensity (a.u.).
With “CAATTTCTCCTTGCACGCTACGTACACACCAACGGCCCAGCGGAGTCACCTAGTGCAG” the figure was 8260 fluorescence intensity (a.u.); with “ATGGGTAAAGGGTTATGTCACATTTTTATGACGGGTTCCACGGAGTCACCTAGTGCAG”, 10400 fluorescence intensity (a.u.); with “GGGCGGGTTTGGATTTTTATTTGGTTTTCCTATGGAGTCCCGGAGTCACCTAGTGCAG”, 17800 fluorescence intensity (a.u.).
With “CCATCTGCACAAGTACCCTCCCATCCAGCAGGCCCCACCACGGAGTCACCTAGTGCAG” the figure was 8480 fluorescence intensity (a.u.).
With “ACCAATTTGATCATTAACTTTTATACCAACATGACCACATCGGAGTCACCTAGTGCAG” the figure was 10300 fluorescence intensity (a.u.); with “GCTTAGACCAACACCTCTGACGGCCTTCTATTAACTTGCCCGGAGTCACCTAGTGCAG”, 8960 fluorescence intensity (a.u.).
As to “CCGGTCTCTCTCTTGGTGATTGATTGATTATCGTTTTGACCGGAGTCACCTAGTGCAG”, the binding signal is 12000 fluorescence intensity (a.u.).
The result for “TTTTTTTCTCCTTTCCTTCTTCTCTCTCTCTCTTTTTTTTCGGAGTCACCTAGTGCAG” reads 8870 fluorescence intensity (a.u.); that for “AAATGGATGTTAAACTCGGTCTACCCCGTATGTTTCCTCACGGAGTCACCTAGTGCAG”, 8480 fluorescence intensity (a.u.).
The result for “TCCCTTGTACACCTGTAACCACTCCACAGTCCACCCCAACCGGAGTCACCTAGTGCAG” reads 10900 fluorescence intensity (a.u.).
Turning to “CTTCCTACTACTTTTAACCCTGTCAAGTGTCGACTGGACACGGAGTCACCTAGTGCAG”, the binding signal was 8490 fluorescence intensity (a.u.).
With “CTTCTCTTATTGTTTGTGTCATTTTCATTTATGTCCTTGTCGGAGTCACCTAGTGCAG” the figure was 9800 fluorescence intensity (a.u.).
